# Data: patent publication US20080026067A1, “Method for Increasing Specific Surface Area of Slightly Soluble Drug” (priority 2004, published 2008)
# Experiment: Comparison of the filtration time
# Conditions: suction filtration, Kiriyama funnel, filter paper diameter 40 mm
# Protocol: The filtration time in process of Adjustment Example 3 and 4 was measured. However, filtration was performed by on like-for-like basis of suction filtration using Kiriyama funnel and filter paper having its diameter 40 mm. As a result, the filtration time of Adjustment Example 3 (specific surface area of the powder of compound A is 19.6 m^2/g) was about 16 minutes than the time of Adjustment Example 4 (specific surface area of the powder of compound A is 12.51 m^2/g) was about 2.8 minutes.
smiles,measurement,value
"Cc1ccc(-c2nc(CCOc3cccc4c3CCC=C4CCC(=O)O)c(C)o2)cc1 [Adjustment Example 4, 3-(5-{2-[5-methyl-2-(4-methylphenyl)-1,3-oxazol-4-yl]ethoxy}-3,4-dihydronaphthalen-1-yl)propanoic acid]",filtration time,about 2.8 minutes
"Cc1ccc(-c2nc(CCOc3cccc4c3CCC=C4CCC(=O)O)c(C)o2)cc1 [Adjustment Example 3, 3-(5-{2-[5-methyl-2-(4-methylphenyl)-1,3-oxazol-4-yl]ethoxy}-3,4-dihydronaphthalen-1-yl)propanoic acid]",filtration time,about 16 minutes
